Test results from the supplement of paper PMC4371806.
In all, about 2,300 compounds were measured (“plate-normalized OD600 growth (mean of duplicates)”: median about 0.29, lowest 2% from about 0.22 on). The list shows a part of the results.

Test system: Escherichia coli BW25113
Assay: plate-normalized OD600 growth (mean of duplicates) (OD600 (normalized)); higher = more growth (less inhibition)
Conditions: 10 µM
Method: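 E. coli BW25113 in LB (100 µl, 96-well, no shaking) was exposed to 10 µM of each compound from a ~30,000-member library and grown at 37°C for 24 h or 15°C for 48 h, in duplicate. Growth was read as OD600 and the duplicate ODs were normalized across screening plates to correct plate-to-plate variation. Hits were >3σ below the mean OD600 at 15°C and <2σ below the mean at 37°C.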

SMILES | plate-normalized OD600 growth (temperature: 15°C, 48 h) | plate-normalized OD600 growth (temperature: 37°C, 24 h)
CNC(=S)NNC(=O)c1cccs1 | 0.254 | 0.645
C/C(=N\N=C1/NC(=O)CC(C(=O)O)S1)c1cccs1 (centres undefined) | 0.25 | 0.609
COc1cccc(NC(=O)CSc2ccccc2)c1 | 0.268 | 0.623
CC(C)(C)C(=O)Nc1ccc(-c2nc3ccc(Cc4ccc5nc(-c6ccc(NC(=O)C(C)(C)C)cc6)oc(=O)c5c4)cc3c(=O)o2)cc1 | 0.25 | 0.629
CC(C)[n+]1c2ccc(C(C)(C)C)cc2cc2cc(C(C)(C)C)ccc21 | 0.245 | 0.602
Cc1noc(C)c1C(=O)N1CCN(c2ncc(C(F)(F)F)cc2Cl)CC1 | 0.25 | 0.605
CC(=O)Nc1nonc1-c1nc2ccccc2n1Cc1ccccc1F | 0.248 | 0.615
O=C(C(c1ccccc1)c1ccccc1)N1CCc2ccccc21 | 0.244 | 0.6
N#CCN1CCN(CCC(=O)Nc2ccc(F)cc2)CC1 | 0.24 | 0.619
Cc1ccc2oc(-c3ccc(C)c(NC(=O)c4ccc(C)c([N+](=O)[O-])c4)c3)nc2c1 | 0.255 | 0.628
CCCC(CC(=O)O)(C(=O)O)c1ccccc1 (centres undefined) | 0.259 | 0.616
N#CC(NCc1ccccc1)c1ccc(Cl)c(Cl)c1 (centres undefined) | 0.25 | 0.626
C/C(CC(=O)Nc1ccccc1C)=N\NC(=O)COc1ccc(Br)cc1C | 0.239 | 0.63
O=C1c2cccc3cccc(c23)C(=O)N1CCO | 0.242 | 0.616
CC(C)CC(=O)NCc1ccc2c(c1)OCO2 | 0.239 | 0.61
N/C(=N/O)c1cnccc1C(F)(F)F | 0.279 | 0.653
COC(=O)Nc1ccc(SCC(=O)c2ccc(Cl)cc2)cc1 | 0.224 | 0.655
CC(C)(C)C1=NN(c2ccccc2)C(=O)C1 | 0.229 | 0.62
Cc1ccccc1-c1c(C#N)c(N)nc(C(C#N)c2nc3ccccc3s2)c1C#N (centres undefined) | 0.23 | 0.647
Cc1nc2ccccn2c1C(=O)NN=C1CCCCCC1 | 0.248 | 0.622
O=C1c2cccc3c(SCCO)ccc(c23)C(=O)N1CCc1ccccn1 | 0.265 | 0.634
CCc1c(-c2ccccc2)[nH]c2nc3c(c(=O)n(C)c(=O)n3C)n12 | 0.236 | 0.612
COc1ccccc1-n1c(Cc2ccc(Cl)cc2)n[nH]c1=S | 0.248 | 0.615
COc1ccc(C(=O)[C@@H]2[C@@H](c3cccnc3)C(C#N)(C#N)[C@H]3C=Cc4ccccc4N23)cc1 | 0.259 | 0.632
CCC(CC)=NNC(=O)CNC(=O)CNS(=O)(=O)c1ccc(C)cc1 | 0.236 | 0.593
Cc1cc(/C=N/NC(N)=S)c(C)n1-c1ccccc1 | 0.232 | 0.631
NS(=O)(=O)c1ccc(-n2ncc3ccccc3c2=O)cc1 | 0.214 | 0.646

Grouped by structure, the compounds so far containing an NH in an aromatic ring (two)
SMILES | plate-normalized OD600 growth (temperature: 15°C, 48 h) | plate-normalized OD600 growth (temperature: 37°C, 24 h)
CCc1c(-c2ccccc2)[nH]c2nc3c(c(=O)n(C)c(=O)n3C)n12 | 0.236 | 0.612
COc1ccccc1-n1c(Cc2ccc(Cl)cc2)n[nH]c1=S | 0.248 | 0.615
